The record followed here is paper doi:10.1101/2025.06.27.661541.

Results are given in words; binding and its absence hold for the method and conditions named. Binding calls can cover weak binding; strength is not graded here. Tags and fused reporters may be left off the sequences shown.

The target in assay [1] is T1, MinC, bacterial two-hybrid fusion (Anabaena sp. PCC 7120) (UniProt Q8YRJ1).
T1 sequence: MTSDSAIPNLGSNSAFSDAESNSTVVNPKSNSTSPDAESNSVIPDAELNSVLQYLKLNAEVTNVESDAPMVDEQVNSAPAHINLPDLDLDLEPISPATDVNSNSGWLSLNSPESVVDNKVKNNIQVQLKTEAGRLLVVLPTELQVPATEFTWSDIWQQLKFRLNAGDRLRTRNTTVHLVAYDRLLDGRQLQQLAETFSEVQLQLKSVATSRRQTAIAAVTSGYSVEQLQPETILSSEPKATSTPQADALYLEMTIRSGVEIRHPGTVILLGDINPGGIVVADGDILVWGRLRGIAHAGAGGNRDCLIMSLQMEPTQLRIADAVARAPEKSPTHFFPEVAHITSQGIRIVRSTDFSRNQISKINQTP
The assay is described as follows: two-hybrid.

In assay [2] the target is CorR, bacterial two-hybrid fusion (Anabaena sp. PCC 7120). The assay is described as follows: two-hybrid.

As to “Cdv3, bacterial two-hybrid fusion (Anabaena sp. PCC 7120)”, the binding entry in assay [1] is recorded as “binds”. Regarding “MinE, bacterial two-hybrid fusion (Anabaena sp. PCC 7120)”, the binding entry in assay [1] is on record as “binds”.

B1: MinC, bacterial two-hybrid fusion (protein, UniProt Q8YRJ1 1-366)
chain: MTSDSAIPNLGSNSAFSDAESNSTVVNPKSNSTSPDAESNSVIPDAELNSVLQYLKLNAEVTNVESDAPMVDEQVNSAPAHINLPDLDLDLEPISPATDVNSNSGWLSLNSPESVVDNKVKNNIQVQLKTEAGRLLVVLPTELQVPATEFTWSDIWQQLKFRLNAGDRLRTRNTTVHLVAYDRLLDGRQLQQLAETFSEVQLQLKSVATSRRQTAIAAVTSGYSVEQLQPETILSSEPKATSTPQADALYLEMTIRSGVEIRHPGTVILLGDINPGGIVVADGDILVWGRLRGIAHAGAGGNRDCLIMSLQMEPTQLRIADAVARAPEKSPTHFFPEVAHITSQGIRIVRSTDFSRNQISKINQTP
On to B1, for which the binding entry in assay [2] is “binds”.
